Measurements published in article PMC12305721 (International Journal of Pharmaceutics: X, 2025).

Settings: from water solubility <0.1 mg/mL and log P > 2.0

Biopharmaceutics Classification System (BCS) class: Class II
Structure (SMILES): Nc1nc2ccc(OC(F)(F)F)cc2s1 [Riluzole]
